Experimental data published in article PMC3777878.
No constants are given. Whether binding was seen depends on the method and setting. Binding seen in cells or lysates may run through a third protein. Binding can be weak; no strength is given.

Amino acid sequences for entries named in this document (tags omitted). A change or cut given only in a name is not applied to a line headed by its entry.
UniProt Q62083: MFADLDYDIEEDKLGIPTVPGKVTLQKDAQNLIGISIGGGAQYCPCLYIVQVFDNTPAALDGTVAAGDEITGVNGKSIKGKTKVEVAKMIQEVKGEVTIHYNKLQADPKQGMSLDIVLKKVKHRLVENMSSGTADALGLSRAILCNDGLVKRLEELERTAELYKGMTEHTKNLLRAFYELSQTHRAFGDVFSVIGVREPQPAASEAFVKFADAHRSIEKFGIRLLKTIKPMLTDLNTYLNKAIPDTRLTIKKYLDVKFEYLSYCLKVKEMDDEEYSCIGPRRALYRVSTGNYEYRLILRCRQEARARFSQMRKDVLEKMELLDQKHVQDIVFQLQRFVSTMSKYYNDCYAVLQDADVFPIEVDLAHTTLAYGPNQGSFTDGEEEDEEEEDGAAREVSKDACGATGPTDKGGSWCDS
UniProt Q8VI51: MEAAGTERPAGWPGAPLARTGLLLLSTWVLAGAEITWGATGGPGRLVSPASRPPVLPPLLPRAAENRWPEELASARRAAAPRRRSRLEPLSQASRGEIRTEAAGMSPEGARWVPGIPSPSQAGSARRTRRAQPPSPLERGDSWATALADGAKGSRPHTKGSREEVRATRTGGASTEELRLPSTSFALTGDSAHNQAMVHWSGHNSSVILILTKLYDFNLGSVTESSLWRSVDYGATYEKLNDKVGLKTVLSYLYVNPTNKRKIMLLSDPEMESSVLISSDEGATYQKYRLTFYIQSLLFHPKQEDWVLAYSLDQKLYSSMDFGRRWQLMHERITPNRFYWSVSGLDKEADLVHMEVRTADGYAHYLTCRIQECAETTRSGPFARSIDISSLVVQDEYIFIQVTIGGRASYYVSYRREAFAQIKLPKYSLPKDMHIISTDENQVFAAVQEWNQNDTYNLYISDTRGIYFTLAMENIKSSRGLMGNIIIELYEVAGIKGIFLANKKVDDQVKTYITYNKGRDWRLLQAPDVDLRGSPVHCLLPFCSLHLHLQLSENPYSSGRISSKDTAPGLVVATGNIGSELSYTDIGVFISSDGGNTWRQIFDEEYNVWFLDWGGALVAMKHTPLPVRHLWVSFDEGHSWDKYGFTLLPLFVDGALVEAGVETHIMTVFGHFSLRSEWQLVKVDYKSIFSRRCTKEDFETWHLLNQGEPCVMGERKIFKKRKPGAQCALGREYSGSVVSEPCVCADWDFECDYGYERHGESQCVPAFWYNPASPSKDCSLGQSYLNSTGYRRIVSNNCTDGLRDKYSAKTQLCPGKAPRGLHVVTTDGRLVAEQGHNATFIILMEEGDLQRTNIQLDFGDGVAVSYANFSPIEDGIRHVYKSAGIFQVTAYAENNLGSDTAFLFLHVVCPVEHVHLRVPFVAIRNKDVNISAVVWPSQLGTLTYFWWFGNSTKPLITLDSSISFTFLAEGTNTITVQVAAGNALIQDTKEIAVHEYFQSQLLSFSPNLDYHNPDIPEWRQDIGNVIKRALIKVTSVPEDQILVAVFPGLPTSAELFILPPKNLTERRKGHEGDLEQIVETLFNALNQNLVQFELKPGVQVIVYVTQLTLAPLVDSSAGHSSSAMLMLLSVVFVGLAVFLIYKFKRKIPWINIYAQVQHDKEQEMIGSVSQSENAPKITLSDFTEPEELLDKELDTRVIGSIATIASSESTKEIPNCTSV

Target: recombinant GST-PICK1 fusion protein (UniProt Q62083)
Assay: pull-down; lysate of HEK293 cells expressing SORCS3 mixed with 15 µg GST-PICK1 (or 10 µg GST), overnight at 4°C; glutathione sepharose beads 5 h; washed in lysis buffer with 0.4 M NaCl without Triton X-100; only the target purified

For “SORCS3 (HEK293 cells stably expressing SORCS3) (from UniProt Q8VI51) (receptor)”, the binding was “binds”.
